{"sequences": {"note": "By UniProt entry, the sequences of proteins in these tests, tags left out. Residues count along the entry.", "UniProt P0DTC8, residues 16-121": "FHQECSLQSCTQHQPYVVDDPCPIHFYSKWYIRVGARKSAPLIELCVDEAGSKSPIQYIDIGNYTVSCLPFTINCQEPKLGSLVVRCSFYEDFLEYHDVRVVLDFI", "UniProt P01024, residues 23-1663": "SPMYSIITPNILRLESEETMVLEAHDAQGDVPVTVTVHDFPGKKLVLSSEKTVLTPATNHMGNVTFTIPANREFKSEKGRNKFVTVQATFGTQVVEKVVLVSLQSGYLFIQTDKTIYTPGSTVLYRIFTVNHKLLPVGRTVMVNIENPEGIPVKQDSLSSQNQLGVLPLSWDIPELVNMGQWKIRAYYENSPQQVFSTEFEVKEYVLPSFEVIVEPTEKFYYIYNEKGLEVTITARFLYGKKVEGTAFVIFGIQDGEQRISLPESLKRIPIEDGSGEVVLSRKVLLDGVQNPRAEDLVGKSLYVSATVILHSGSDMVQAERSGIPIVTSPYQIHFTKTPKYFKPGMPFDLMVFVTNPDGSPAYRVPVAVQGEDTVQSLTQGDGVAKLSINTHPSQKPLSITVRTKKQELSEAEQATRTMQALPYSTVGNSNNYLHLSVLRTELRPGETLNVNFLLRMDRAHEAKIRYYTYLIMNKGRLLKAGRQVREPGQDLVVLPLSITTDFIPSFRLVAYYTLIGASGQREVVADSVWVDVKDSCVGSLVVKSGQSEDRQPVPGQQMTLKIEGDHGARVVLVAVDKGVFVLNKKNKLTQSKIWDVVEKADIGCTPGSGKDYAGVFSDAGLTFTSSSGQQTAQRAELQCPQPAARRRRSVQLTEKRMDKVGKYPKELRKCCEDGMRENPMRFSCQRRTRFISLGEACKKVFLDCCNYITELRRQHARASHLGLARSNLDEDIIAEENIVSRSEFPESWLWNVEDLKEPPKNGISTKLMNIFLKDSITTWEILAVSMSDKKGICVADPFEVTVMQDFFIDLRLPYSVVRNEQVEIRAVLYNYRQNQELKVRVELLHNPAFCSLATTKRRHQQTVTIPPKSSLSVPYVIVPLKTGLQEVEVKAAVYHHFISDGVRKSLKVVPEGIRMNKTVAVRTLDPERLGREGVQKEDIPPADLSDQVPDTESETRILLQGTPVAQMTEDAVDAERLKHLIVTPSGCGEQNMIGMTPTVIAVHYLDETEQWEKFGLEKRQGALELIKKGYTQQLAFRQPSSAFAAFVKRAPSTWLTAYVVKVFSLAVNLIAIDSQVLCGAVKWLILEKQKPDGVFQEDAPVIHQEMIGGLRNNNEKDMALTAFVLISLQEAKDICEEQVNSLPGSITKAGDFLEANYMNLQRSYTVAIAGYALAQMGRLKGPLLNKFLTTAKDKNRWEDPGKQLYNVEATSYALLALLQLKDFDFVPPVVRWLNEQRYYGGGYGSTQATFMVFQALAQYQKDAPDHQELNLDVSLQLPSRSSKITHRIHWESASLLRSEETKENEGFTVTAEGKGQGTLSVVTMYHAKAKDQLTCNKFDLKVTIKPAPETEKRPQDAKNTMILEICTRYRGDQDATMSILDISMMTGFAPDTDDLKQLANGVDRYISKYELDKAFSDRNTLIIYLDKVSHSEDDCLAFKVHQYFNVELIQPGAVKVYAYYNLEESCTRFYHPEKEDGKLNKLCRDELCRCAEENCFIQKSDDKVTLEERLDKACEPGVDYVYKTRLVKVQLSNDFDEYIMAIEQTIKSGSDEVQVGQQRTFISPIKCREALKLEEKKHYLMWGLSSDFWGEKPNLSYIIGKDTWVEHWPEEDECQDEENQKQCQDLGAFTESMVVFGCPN"}, "source": "paper PMC11574245", "target": "SARS-CoV-2 ORF8 (bait of the immunoprecipitation coupled with mass spectrometry) (SARS-CoV-2) (UniProt P0DTC8)", "assay": "affinity purification with mass spectrometry", "note": "Results are given in words; binding and its absence hold for the method and conditions named. Binding seen in cells or lysates may run through a third protein. A yes stands for co-enrichment or nearness to the bait. Other partners may have been found.", "data": [{"substance": "complement C3 (from UniProt P01024 23-1663)", "values": [{"measurement": "binding", "result": "binds"}]}]}
